For series [1], the system named is Smc5 hinge (extended-hinge) + Smc6 hinge (extended-hinge). The experiment in a line: pull-down. The note with it: 20 mM HEPES.NaOH pH 7.5, 100 mM NaCl, 1 mM EDTA, 0.5 mM TCEP, room temperature 10 min, 100 nM DNA (FP, EMSA); pull-down same buffer, protein incubation 4 C 30 min; recombinant protein; label: 5' biotin; single-stranded DNA.
The test system of series [2] is Smc5 hinge R609E/R615E + Smc6 hinge (extended-hinge). Put plainly: fluorescence polarization. The note with it: significantly disrupted, Kd not determined; 20 mM HEPES.NaOH pH 7.5, 100 mM NaCl, 1 mM EDTA, 0.5 mM TCEP, room temperature 10 min, 100 nM DNA (FP, EMSA); pull-down same buffer, protein incubation 4 C 30 min; recombinant protein; label: 5' fluorescein; single-stranded DNA.

For series [3], the system named is Smc5 hinge (extended-hinge) + Smc6 hinge R706C. Put plainly: switchSENSE. The following applies: reduced maximum signal; 5' HS-(CH2)6 thiol linker; 20 mM HEPES.NaOH pH 7.5, 100 mM NaCl, 1 mM EDTA, 0.5 mM TCEP, room temperature 10 min, 100 nM DNA (FP, EMSA); pull-down same buffer, protein incubation 4 C 30 min; recombinant protein; label: 3' Cy3; single-stranded DNA.

Series [4] has as its system Smc5 hinge R609E/R615E + Smc6 hinge (extended-hinge). The experiment in a line: switchSENSE. The following applies: significantly disrupted; 5' HS-(CH2)6 thiol linker; 20 mM HEPES.NaOH pH 7.5, 100 mM NaCl, 1 mM EDTA, 0.5 mM TCEP, room temperature 10 min, 100 nM DNA (FP, EMSA); pull-down same buffer, protein incubation 4 C 30 min; recombinant protein; label: 3' Cy3; single-stranded DNA.

Series [5] relates to Smc5 hinge (extended-hinge) + Smc6 hinge F528A. Put plainly: switchSENSE. The following applies: reduced maximum signal, monophasic, associates at lower protein concentration than WT; 5' HS-(CH2)6 thiol linker; 20 mM HEPES.NaOH pH 7.5, 100 mM NaCl, 1 mM EDTA, 0.5 mM TCEP, room temperature 10 min, 100 nM DNA (FP, EMSA); pull-down same buffer, protein incubation 4 C 30 min; recombinant protein; label: 3' Cy3; single-stranded DNA.

Series [6] relates to Smc5 hinge Y612A + Smc6 hinge (extended-hinge). The experiment in a line: switchSENSE. The following applies: reduced maximum signal, monophasic dissociation; 5' HS-(CH2)6 thiol linker; 20 mM HEPES.NaOH pH 7.5, 100 mM NaCl, 1 mM EDTA, 0.5 mM TCEP, room temperature 10 min, 100 nM DNA (FP, EMSA); pull-down same buffer, protein incubation 4 C 30 min; recombinant protein; label: 3' Cy3; single-stranded DNA.

Series [7] deals with Smc5 hinge (extended-hinge) + Smc6 hinge (extended-hinge). The experiment in a line: fluorescence polarization. The note with it: 20 mM HEPES.NaOH pH 7.5, 100 mM NaCl, 1 mM EDTA, 0.5 mM TCEP, room temperature 10 min, 100 nM DNA (FP, EMSA), pull-down same buffer, protein incubation 4 C 30 min, recombinant protein, only the site is given.
The test system is the same in series [8]. The experiment in a line: EMSA. The note with it: aggregated species in well above 1.8 uM protein; 20 mM HEPES.NaOH pH 7.5, 100 mM NaCl, 1 mM EDTA, 0.5 mM TCEP, room temperature 10 min, 100 nM DNA (FP, EMSA); pull-down same buffer, protein incubation 4 C 30 min; recombinant protein; label: 3' fluorescein; single-stranded DNA; only the site is given.

For some of these results: A weaker result is weaker than the reference pair of the same experiment. For some of these results: Construct, isoform or probe ends are uncertain for at least one entry. For some of these results: At least one verdict was read from the data and is not stated in words by the source.

For the sequence CTCGTCTGGCTCTGGATTAC [20mer (biotin)], the binding result in series [1] is recorded as “binds”. With “GCGGGTAATCCAGAGCCAGACGAGCACTACGAACAACTAA [40mer (biotin)]”, the binding result in series [1] is “binds”. Regarding “GCGGGTAATCCAGAGCCAGACGAGCACTACGAACG [35mer (biotin)]”, the binding result in series [1] is reported as “binds”. For GCTCGTCTGGCTCTG [15mer], the binding result in series [2] is “binds more weakly”. For “GCTCGTCTGGCTCTGGATTACCCGC [25mer (biotin)]”, the binding result in series [1] is reported as “binds”. Take “GTAGTGCTCGTCTGGCTCTGGATTACCCGC [30mer (biotin)]”: the binding result in series [1] is “binds”. For the sequence “GTGTGAACCCTCCAACAAAGGTAGCATTTGCCAGCTCTCGTGATGCAG [switchSENSE 48mer]”, the binding result in series [3], in series [4], in series [5] and in series [6] was “binds more weakly” each time. Turning to “TTAGTTGTTCGTAGTGCTCGTCTGGCTCTGGATTACCCGC (double strand) [annealed A+B (called 45 bp dsDNA)]”, in series [7] (only ~45% bound at 20 uM protein, label: 3' fluorescein on A), the binding result was “binds more weakly”. For the sequence “TTAGTTGTTCGTAGTGCTCGTCTGGCTCTGGATTACCCGC [oligonucleotide A (called 45 nt ssDNA)]”, the Kd in series [8] was found to be 1200 nM; in series [7] (label: 3' fluorescein, single-stranded DNA) it was 2000 nM.
